This passage reports binding results from article PMC12812394.

Results are given in words; binding and its absence hold for the method and conditions named. Binding seen in cells or lysates may run through a third protein. A result given as binding can be weak or reduced; the word gives no strength. Where a sequence is shown, tags or fusion partners need not be part of it.

The target in the assay is Pi65-HA (rice (Oryza sativa ssp. japonica cv. GY129)). Kind of assay: co-IP.

B1: OsAPx4-GFP (enzyme, UniProt Q6ZJJ1 1-291)
chain: MAAPVVDAEYLRQVDRARRHLRALISSKGCAPIMLRLAWHDAGTYDVNTKTGGANGSIRYEEEYTHGSNAGLKIAIDLLEPIKAKSPKITYADLYQLAGVVAVEVTGGPTVEFIPGRRDSSVCPREGRLPDAKKGALHLRDIFYRMGLSDKDIVALSGGHTLGRAHPERSGFEGAWTQEPLKFDNSYFLELLKGESEGLLKLPTDKALLEDPSFRRYVDLYARDEDTFFKDYAESHKKLSELGFTPRSSGPASTKSDLSTGAVLAQSAVGVAVAAAVVIVSYLYEASKKSK
With B1, the binding result was “binds”.
